PubChem BioAssay AID1259425, University of Nebraska Medical Center, 2018
Aim: 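Compare each knockdown with KSR1 silencing using changes in marker transcripts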 (primary screen). System: HCT116 human colon cancer cells. Reagent: siRNA pool against human genes, 50 nM siRNA. Measurement: 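mRNA of six signature genes measured together by branched-DNA assay after 50 nM siRNA pool, blank removed, divided by geometric mean of two housekeeping genes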. Direction: BNIP3L mRNA: higher = more BNIP3L transcript after knockdown; NDRG1 mRNA: higher = more NDRG1 transcript after knockdown; BNIP3 mRNA: higher = more BNIP3 transcript after knockdown.
In all, the deposit lists about 14,000 reagents; below is a random part of them. Some reagents were tested in more than one well and are listed for each. Not all columns of the deposit are shown. The record does not give: the time to read-out.

gene symbol | PubChem SID | BNIP3L mRNA, set 1 | NDRG1 mRNA, set 1 | BNIP3 mRNA, set 1
APOL3 | SID364004664 | 0.0555 | 0.154 | 0.202
ATP5MF | SID363995839 | 0.145 | 0.123 | 0.299
RPP40 | SID363997426 | 0.119 | 0.241 | 0.287
DCUN1D4 | SID363999310 | 0.0829 | 0.146 | 0.319
SIK1 | SID364004824 | 0.102 | 0.176 | 0.211
BRD8 | SID363997477 | 0.126 | 0.778 | 0.799
APRT | SID363991808 | 0.0943 | 0.0309 | 0.22
SRSF9 | SID363994833 | 0.0926 | 0.145 | 0.301
CAPZA1 | SID363996966 | 0.121 | 0.0808 | 0.388
ORMDL1 | SID364000125 | 0.0713 | 0.128 | 0.168
PPEF1 | SID363997064 | 0.0919 | 0.185 | 0.234
NEK3 | SID363993671 | 0.0589 | 0.0261 | 0.151
PPP1R14B | SID364005405 | 0.0879 | 0.206 | 0.249
CD81 | SID363995342 | 0.0596 | 0.212 | 0.415
MYRF | SID363998402 | 0.163 | 0.281 | 0.372
ARID1A | SID364001083 | 0.0762 | 0.0856 | 0.285
CCL7 | SID363997095 | 0.124 | 0.561 | 0.447
NEK4 | SID363994296 | 0.135 | 0.112 | 0.256
PANK2 | SID364003189 | 0.09 | 0.244 | 0.209
NKX2-8 | SID363998784 | 0.049 | 0.186 | 0.246

No new results follow: an excerpt of the list.
gene symbol | PubChem SID | BNIP3L mRNA, set 1 | NDRG1 mRNA, set 1 | BNIP3 mRNA, set 1
ARID1A | SID364001083 | 0.0762 | 0.0856 | 0.285
CCL7 | SID363997095 | 0.124 | 0.561 | 0.447
NEK4 | SID363994296 | 0.135 | 0.112 | 0.256
PANK2 | SID364003189 | 0.09 | 0.244 | 0.209
NKX2-8 | SID363998784 | 0.049 | 0.186 | 0.246

Additional records follow.
gene symbol | PubChem SID | BNIP3L mRNA, set 1 | NDRG1 mRNA, set 1 | BNIP3 mRNA, set 1
SPRING1 | SID364003017 | 0.211 | 0.205 | 0.476
THOC2 | SID364005194 | 0.55 | 1.4 | 0.824
LAMA3 | SID363991561 | 0.085 | 0.237 | 0.301
TCP1 | SID364003406 | 0.278 | 0.956 | 0.258
PARP2 | SID363996386 | 0.0978 | 0.107 | 0.334
UBASH3B | SID364004246 | 0.222 | 0.272 | 0.398
PRUNE1 | SID364002106 | 0.106 | 0.53 | 0.504
WDR74 | SID364000775 | 0.0957 | 0.414 | 0.243
MRPL38 | SID364003997 | 0.15 | 0.101 | 0.231
PLLP | SID363999779 | 0.294 | 0.637 | 0.677
EPB41L2 | SID363992695 | 0.107 | 0.0985 | 0.313
ZNF365 | SID364004998 | 0.0734 | 0.166 | 0.234
KIF18A | SID364003555 | 0.074 | 0.0773 | 0.313
DNAI4 | SID364003038 | 0.0809 | 0.0985 | 0.237
MBNL2 | SID364005012 | 0.0884 | 0.226 | 0.261
H2BC4 | SID363994610 | 0.057 | 0.218 | 0.393
HOXA3 | SID364003397 | 0.13 | 0.203 | 0.246
TTLL7 | SID364002977 | 0.187 | 0.147 | 0.529
ARHGAP35 | SID364002810 | 0.0929 | 0.0357 | 0.275
SIRPD | SID364004914 | 0.106 | 0.099 | 0.211
AJUBA | SID364004978 | 0.15 | 0.202 | 0.371
OSGIN2 | SID363995326 | 0.0573 | 0.0806 | 0.268
NCLN | SID364001527 | 0.217 | 0.128 | 0.156
PPP1R17 | SID363997444 | 0.164 | 0.112 | 0.457
CCNO | SID364002043 | 0.107 | 0.214 | 0.251
TJP3 | SID363998845 | 0.14 | 0.168 | 0.378
LRP8 | SID363995599 | 0.0531 | 1.04 | 0.217
MOAP1 | SID364002377 | 0.134 | 0.306 | 0.34
MOAP1 | SID364002377 | 0.136 | 0.342 | 0.258
HSPA4L | SID363998711 | 0.154 | 0.145 | 0.438
